Measured values from patent US20230416356A1 (SCOUT BIO, published 2023).
No constants are given. Whether binding was seen depends on the method and setting. Some binding calls cover weakened binding; strength is not graded here. For part of these data: Tags and fused reporters may be left off the sequences shown.

Key:
[1] = target: T1, Canine IL-31 Mutant 1 (alanine substitutions at positions 76, 77, 80, 81 and 84 of SEQ ID NO:1; SEQ ID NO:62) (canine); assay: ELISA, antigen coated
T1 sequence: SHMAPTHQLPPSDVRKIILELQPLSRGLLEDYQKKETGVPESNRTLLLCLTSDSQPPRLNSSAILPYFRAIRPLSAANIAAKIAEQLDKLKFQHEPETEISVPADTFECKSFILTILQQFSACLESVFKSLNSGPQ

[2] = target: T2, Recombinant canine IL-31 (ProSpec-Tany; amino acid residues 24-159 of Accession no. NP_001159386; SEQ ID NO:1) with C-terminal His-Tag (canine); assay: ELISA, antigen coated
T2 sequence: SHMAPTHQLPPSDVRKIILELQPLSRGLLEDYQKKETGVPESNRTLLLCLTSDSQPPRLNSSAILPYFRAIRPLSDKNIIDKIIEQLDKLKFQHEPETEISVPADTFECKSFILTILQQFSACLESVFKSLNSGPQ

[3] = target: T3, Canine IL-31 Mutant 2 (alanine substitutions at positions 13, 15, 20 and 26 of SEQ ID NO:1; SEQ ID NO:63) (canine); assay: ELISA, antigen coated
T3 sequence: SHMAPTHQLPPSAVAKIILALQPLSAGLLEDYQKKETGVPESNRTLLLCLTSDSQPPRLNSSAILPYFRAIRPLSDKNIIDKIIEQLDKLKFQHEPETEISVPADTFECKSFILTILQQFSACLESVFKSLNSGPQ

[4] = target: T4, Feline IL-31 (SEQ ID NO: 64) (feline); assay: ELISA, antigen coated
T4 sequence: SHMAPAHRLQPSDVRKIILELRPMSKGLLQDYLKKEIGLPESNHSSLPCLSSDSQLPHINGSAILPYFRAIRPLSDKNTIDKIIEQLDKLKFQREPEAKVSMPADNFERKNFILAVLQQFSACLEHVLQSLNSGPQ

[5] = target: T5, Canine/Human chIL-31_c1_h234 (SEQ ID NO: 67) (canine/human chimeric); assay: ELISA, protein coated (100 ng/well)
T5 sequence: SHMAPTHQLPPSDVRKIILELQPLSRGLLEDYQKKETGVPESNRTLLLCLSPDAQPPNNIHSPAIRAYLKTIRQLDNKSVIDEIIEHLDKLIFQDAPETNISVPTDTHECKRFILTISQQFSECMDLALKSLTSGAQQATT

[6] = target: T6, Canine/Human chIL-31_c12_h34 (SEQ ID NO: 66) (canine/human chimeric); assay: ELISA, protein coated (100 ng/well)
T6 sequence: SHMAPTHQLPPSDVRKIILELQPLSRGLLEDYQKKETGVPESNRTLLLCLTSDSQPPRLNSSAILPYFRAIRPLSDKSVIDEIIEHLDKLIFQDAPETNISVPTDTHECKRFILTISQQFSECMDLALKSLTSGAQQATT

[7] = target: T7, Canine/Human chIL-31_c123_h4 (SEQ ID NO: 65) (canine/human chimeric); assay: ELISA, protein coated (100 ng/well)
T7 sequence: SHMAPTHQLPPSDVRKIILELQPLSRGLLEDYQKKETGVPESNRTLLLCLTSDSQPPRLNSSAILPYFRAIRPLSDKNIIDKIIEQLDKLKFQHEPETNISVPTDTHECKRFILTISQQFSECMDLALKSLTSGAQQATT

[8] = target: T8, Canine IL-31_N-term (SEQ ID NO: 68) (canine); assay: ELISA, peptide coated (100 ng/well)
T8 sequence (peptide): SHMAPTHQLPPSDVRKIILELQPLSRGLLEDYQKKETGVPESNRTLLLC

[9] = target: T9, Canine IL-31_N-term_20_3 (SEQ ID NO: 71) (canine); assay: ELISA, peptide coated (100 ng/well)
T9 sequence (peptide): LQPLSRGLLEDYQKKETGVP

Measured: binding

B1: chimeric monoclonal antibody RA4 (chRA4) (antibody, V domains shown)
VH: QIQLVQSGPELKKPGETVKISCKASGYTFTDYSMHWVKQAPGKGLRWMGWINTETGKTIHAEDFKGRVAFSLETSASTAYLQINNLKNEDTATYFCASGRPDYWGQGTTLTVSS
VL: DIVLSQSPASLAVSLGQRATISCRASESVEYYGTSLMQWYQQKPGQPPKLLIYAASGVESGVPARFSGSGSGTDFSLIIHPVEEDDIAMYFCQQSRKVPYTFGGGTKLEIKR
notes: also called chimeric RA4; chimeric RA4.D2 antibody
binds: all assays above
